No constants are given. Whether binding was seen depends on the method and setting. Binding seen in cells or lysates may run through a third protein. These calls come from enrichment with a bait or labelling near it, and not all partners need be listed. For some of these results: Where a sequence is shown, tags or fusion partners need not be part of it.

Protein sequences, listed by entry. Tags and fused reporters are not part of them. Lines headed by an entry give the natural chain unless they say otherwise; changes in a name come on top.
UniProt Q6GPB9: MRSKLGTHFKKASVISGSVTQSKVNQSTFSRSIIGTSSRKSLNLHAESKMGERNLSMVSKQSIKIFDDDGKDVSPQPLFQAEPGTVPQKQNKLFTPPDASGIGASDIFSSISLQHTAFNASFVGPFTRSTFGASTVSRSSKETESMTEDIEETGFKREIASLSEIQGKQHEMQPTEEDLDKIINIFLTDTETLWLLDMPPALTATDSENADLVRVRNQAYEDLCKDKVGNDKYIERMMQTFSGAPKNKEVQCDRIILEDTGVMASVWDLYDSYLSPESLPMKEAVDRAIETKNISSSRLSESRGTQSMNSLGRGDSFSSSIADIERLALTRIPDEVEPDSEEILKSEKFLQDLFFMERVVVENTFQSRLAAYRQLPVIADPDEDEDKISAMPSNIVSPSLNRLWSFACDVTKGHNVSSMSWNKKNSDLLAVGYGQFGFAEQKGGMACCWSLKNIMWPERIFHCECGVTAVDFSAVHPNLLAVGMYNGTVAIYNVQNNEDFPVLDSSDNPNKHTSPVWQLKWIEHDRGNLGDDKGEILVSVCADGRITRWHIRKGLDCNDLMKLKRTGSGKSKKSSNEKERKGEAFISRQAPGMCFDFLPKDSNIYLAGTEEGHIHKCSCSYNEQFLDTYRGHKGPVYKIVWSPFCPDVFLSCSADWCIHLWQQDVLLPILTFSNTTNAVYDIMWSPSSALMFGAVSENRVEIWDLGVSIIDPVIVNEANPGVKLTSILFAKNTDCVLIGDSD
UniProt Q9DE27: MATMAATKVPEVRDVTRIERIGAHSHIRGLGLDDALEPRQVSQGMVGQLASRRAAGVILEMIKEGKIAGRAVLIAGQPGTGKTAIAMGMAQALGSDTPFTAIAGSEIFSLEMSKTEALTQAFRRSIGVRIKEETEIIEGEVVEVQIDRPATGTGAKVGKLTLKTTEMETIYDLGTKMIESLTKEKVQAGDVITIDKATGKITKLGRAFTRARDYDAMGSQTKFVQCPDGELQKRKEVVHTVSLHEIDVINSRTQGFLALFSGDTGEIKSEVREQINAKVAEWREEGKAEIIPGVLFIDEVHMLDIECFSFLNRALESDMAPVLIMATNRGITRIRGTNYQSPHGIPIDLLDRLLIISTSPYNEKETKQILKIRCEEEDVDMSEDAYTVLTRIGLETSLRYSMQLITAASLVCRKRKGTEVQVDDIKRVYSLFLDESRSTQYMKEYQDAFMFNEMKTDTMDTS
UniProt A0A1L8HX76: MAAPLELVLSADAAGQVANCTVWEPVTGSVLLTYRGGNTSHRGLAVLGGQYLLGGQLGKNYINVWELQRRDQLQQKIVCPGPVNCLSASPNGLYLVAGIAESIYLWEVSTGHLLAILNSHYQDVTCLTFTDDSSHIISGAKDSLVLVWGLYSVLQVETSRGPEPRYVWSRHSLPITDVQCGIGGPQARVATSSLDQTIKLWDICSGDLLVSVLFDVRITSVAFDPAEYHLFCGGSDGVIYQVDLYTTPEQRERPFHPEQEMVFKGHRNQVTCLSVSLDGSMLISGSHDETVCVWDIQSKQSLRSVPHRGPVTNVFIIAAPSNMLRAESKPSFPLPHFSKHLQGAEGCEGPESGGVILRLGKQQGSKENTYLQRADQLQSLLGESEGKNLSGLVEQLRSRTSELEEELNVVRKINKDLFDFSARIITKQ
UniProt Q9DE26: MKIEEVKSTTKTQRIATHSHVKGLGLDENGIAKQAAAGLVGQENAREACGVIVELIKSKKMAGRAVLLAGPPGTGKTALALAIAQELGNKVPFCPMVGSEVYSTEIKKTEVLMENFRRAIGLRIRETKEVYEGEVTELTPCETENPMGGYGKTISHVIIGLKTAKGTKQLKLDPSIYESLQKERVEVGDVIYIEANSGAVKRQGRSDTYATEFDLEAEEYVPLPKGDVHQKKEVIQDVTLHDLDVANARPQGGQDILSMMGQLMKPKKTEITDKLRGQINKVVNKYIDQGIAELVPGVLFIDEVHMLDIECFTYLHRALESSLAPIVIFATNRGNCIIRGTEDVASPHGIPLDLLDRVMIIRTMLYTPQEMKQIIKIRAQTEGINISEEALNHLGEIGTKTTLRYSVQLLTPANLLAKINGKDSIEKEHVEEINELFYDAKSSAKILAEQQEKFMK
UniProt A0A1L8EYB2: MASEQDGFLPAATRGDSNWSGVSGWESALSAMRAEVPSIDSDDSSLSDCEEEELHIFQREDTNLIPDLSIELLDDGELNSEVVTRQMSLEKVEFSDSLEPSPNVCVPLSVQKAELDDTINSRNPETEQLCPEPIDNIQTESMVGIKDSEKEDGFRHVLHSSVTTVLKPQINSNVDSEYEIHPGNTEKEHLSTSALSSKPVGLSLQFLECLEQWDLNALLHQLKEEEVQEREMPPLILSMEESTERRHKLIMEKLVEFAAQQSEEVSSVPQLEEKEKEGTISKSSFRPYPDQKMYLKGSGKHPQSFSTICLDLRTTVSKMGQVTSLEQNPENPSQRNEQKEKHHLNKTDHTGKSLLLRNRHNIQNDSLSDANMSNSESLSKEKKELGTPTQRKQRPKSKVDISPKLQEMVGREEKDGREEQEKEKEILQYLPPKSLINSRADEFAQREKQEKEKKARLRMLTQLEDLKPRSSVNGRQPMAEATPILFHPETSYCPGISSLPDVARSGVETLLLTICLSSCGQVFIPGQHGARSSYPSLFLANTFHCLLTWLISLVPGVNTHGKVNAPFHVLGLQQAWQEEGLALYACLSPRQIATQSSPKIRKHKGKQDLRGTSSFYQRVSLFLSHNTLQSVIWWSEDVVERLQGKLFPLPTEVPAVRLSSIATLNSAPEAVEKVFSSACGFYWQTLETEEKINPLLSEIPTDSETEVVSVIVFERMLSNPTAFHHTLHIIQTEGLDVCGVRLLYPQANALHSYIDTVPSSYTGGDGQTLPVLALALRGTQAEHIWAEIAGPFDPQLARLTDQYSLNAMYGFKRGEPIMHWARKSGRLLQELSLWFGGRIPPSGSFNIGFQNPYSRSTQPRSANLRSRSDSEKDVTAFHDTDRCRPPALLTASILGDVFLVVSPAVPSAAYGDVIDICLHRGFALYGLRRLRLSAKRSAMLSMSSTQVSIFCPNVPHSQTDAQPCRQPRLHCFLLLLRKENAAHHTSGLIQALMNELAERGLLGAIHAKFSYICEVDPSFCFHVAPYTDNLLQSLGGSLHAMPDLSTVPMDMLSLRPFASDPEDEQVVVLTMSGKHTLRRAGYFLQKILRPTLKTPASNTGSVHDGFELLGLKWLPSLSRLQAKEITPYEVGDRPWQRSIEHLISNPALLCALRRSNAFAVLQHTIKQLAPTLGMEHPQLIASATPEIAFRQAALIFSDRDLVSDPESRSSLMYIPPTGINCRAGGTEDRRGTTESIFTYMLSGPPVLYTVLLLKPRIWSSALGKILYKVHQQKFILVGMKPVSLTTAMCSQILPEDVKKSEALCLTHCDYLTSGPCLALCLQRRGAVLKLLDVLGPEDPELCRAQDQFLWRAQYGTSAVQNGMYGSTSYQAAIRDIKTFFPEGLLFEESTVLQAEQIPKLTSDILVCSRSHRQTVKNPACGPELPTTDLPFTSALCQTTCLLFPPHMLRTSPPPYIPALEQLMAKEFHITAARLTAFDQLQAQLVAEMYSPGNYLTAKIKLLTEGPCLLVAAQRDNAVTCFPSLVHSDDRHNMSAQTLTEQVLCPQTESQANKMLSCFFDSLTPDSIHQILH

T1: GFP-Dnai2 (Xenopus) (UniProt Q4QR00)
T1 sequence: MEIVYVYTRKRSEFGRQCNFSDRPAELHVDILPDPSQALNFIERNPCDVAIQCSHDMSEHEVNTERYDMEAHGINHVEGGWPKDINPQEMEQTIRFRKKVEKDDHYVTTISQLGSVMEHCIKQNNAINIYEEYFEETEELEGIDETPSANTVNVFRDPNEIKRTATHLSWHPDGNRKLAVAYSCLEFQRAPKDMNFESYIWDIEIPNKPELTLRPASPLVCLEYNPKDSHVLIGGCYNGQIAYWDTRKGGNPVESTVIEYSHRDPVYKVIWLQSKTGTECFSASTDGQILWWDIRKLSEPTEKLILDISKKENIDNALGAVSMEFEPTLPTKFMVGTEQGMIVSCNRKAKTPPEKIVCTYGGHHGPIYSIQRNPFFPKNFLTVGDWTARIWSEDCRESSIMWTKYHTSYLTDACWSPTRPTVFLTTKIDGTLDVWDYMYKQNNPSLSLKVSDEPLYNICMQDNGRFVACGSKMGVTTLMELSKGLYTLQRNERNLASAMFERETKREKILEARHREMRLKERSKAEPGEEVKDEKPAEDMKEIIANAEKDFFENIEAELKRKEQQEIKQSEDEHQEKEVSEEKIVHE

B1: Nme9 (protein, UniProt Q6IRC5 1-625)
chain: MAGKKRESSLQIALSNQEQWEEALSTKGLQVVDVYQAWCGPCKPTVSLFRKIKNELGDDLLHFAVAESDTIDSLVKYRGKCEPTFLFLAGGELVAVVRGANGPLLQKTIIEQLAAEKKVLNQGSERHVIKDEVLLEEEDEIAPVQAQTEDEELVPSGKSYTVAIIKPDAVAHGKTDEIIMKIQESGFEILANEERTMTESEAREFYQHRAGEEKFQELIQFMSSGPCHILIISKSEEDEDVIPAWREFIGPTDVEIAKKEKPESLRAQYGTEVLYNAVHGSNDREQASRELAFFFPNFKISNESLKELTSVKPERTLALIRPEILKERKDEILQSIKDAGFSIAMQKEVMLTEHQVQEFYKEHINEDYYPALLKQMTSGPVLALALVKDNAVGHWRNMLGPASLSQALSEAPDSLRAQFAPSDSETNQLHGSSTTEEAKKEINFFFPVEHTLATIKPDALEEHRDEILEQIQGAGFTISQIKEANLNREMAEEFYKEHKGKPFFEQLVNYMCRGPCLMMILSKENAVHEWRSLMGPTDPAEAQKVLPDSLRGKFAKSILQNAVHGSSNSDHAMEKIKFIFGDIDLDRIVHESFGETPETSASDISRNAAAQGDDPEQDESKEMEE

The first assay concerns the target GFP-Wdr78 (Xenopus) (UniProt Q6GPB9). Kind of assay: affinity purification with mass spectrometry; GFP-tagged bait expressed in multiciliated cells of ~500-550 Xenopus animal cap explants cultured to stage 23; immunoprecipitation with GFP-Trap Agarose; parallel un-fused GFP control used to subtract background; enrichment by Z-test, fold-change and ….
Turning to Ruvbl2 (from UniProt Q9DE27 1-462), the binding entry is given as “binds weakly”.

As to Wdr18 (from UniProt A0A1L8HX76 1-428), the binding entry was “binds”.

Turning to Ruvbl1 (from UniProt Q9DE26 1-456), the binding entry is “binds weakly”.

The next assay concerns the target T1, GFP-Dnai2 (Xenopus). The description is as above.
Turning to Ruvbl2 (from UniProt Q9DE27 1-462), the binding entry is on record as “binds weakly”.

Take Tctex1d1: the binding result was “binds”.

As to Dnah11, the binding entry is “binds”.

Turning to Dnah9, the binding entry was “binds”.

As for Dnai1, the binding entry is “binds”.

Consider Dnaaf1, for which the binding entry is listed as “binds weakly”.

On to “C16orf71/Daap1 (from UniProt A0A1L8EYB2)”, for which the binding result was “binds”.

As to Spag1, the binding result is on record as “binds weakly”.

Take Ruvbl1 (from UniProt Q9DE26 1-456): the binding entry was “binds weakly”.

Another assay has as its target T1, GFP-Dnai2 (Xenopus). Described as above. This is another data set of the same source.
For B1, the binding entry is recorded as “binds”.

Values taken from publication PMC7785291.
